Laboratory results: PubChem BioAssay AID652243 (Drosophila RNAi Screening Center, 2013)

Aim: 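Fly genes required for human androgen receptor driven transcription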 (primary screen)
Cell system: Drosophila S2R+ cells
Reagent: long dsRNA against Drosophila genes
Duration: 72 h (48 h, then 24 h hormone)
Challenge: synthetic androgen R1881 at 10 nM for 24 h
Measurement: 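Firefly light from an androgen-responsive reporter and Renilla control light per well, raw and unnormalised, for each of two replicates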
Reading the numbers: firefly reporter light: higher = more light from androgen-responsive reporter; Renilla control light: higher = more constitutive control signal (cell number, transfection)
Rule for the call: 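Across duplicate plates, a knock-down whose log firefly/Renilla ratio shifted a set fold down or up from the GFP/LacZ control mean was a hit; the downward cut appears as both 1.5 and 3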
Calls: active = hit: reporter lowered or raised; inactive = no hit
In all, the deposit lists about 24,000 reagents; shown is an unselected part of those that have a named target and a result. Over the whole deposit, 246 (1%) were called active. 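Plates not normalised; calls are printed but the firefly/Renilla ratio behind them is not deposited; fold cut for lowering reported inconsistently.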 The raw values are shown without normalisation. Reagents against one gene are numbered here. The record does not give: the amount of reagent.

Tsp42Ej #1
- firefly reporter light, replicate 1: 9.87e5
- firefly reporter light, replicate 2: 9.39e5
- Renilla control light, replicate 1: 1.38e6
- Renilla control light, replicate 2: 1.35e6
- Call: inactive

Tsp42Ej #2
- firefly reporter light, replicate 1: 4.01e5
- firefly reporter light, replicate 2: 8.11e5
- Renilla control light, replicate 1: 8.86e5
- Renilla control light, replicate 2: 1.57e6
- Call: inactive

CG3107
- firefly reporter light, replicate 1: 1.25e6
- firefly reporter light, replicate 2: 9.80e5
- Renilla control light, replicate 1: 2.29e6
- Renilla control light, replicate 2: 1.63e6
- Call: inactive

CG31097 #1
- firefly reporter light, replicate 1: 2.31e5
- firefly reporter light, replicate 2: 2.24e5
- Renilla control light, replicate 1: 2.14e6
- Renilla control light, replicate 2: 2.29e6
- Call: inactive

CG31097 #2
- Call: inactive

colt #1
- firefly reporter light, replicate 1: 9.03e5
- firefly reporter light, replicate 2: 7.81e5
- Renilla control light, replicate 1: 2.91e6
- Renilla control light, replicate 2: 1.93e6
- Call: inactive

colt #2
- firefly reporter light, replicate 1: 5.20e5
- firefly reporter light, replicate 2: 4.65e5
- Renilla control light, replicate 1: 1.25e6
- Renilla control light, replicate 2: 1.08e6
- Call: inactive

Surf4
- firefly reporter light, replicate 1: 1.37e5
- firefly reporter light, replicate 2: 1.63e5
- Renilla control light, replicate 1: 1.69e6
- Renilla control light, replicate 2: 2.21e6
- Call: inactive

CG13954 #1
- firefly reporter light, replicate 1: 2.65e5
- firefly reporter light, replicate 2: 1.56e5
- Renilla control light, replicate 1: 1.55e6
- Renilla control light, replicate 2: 9.18e5
- Call: inactive

CG13954 #2
- firefly reporter light, replicate 1: 3.46e5
- firefly reporter light, replicate 2: 2.97e5
- Renilla control light, replicate 1: 4.45e5
- Renilla control light, replicate 2: 3.73e5
- Call: inactive

ash1
- firefly reporter light, replicate 1: 19380
- firefly reporter light, replicate 2: 20015
- Renilla control light, replicate 1: 2.00e5
- Renilla control light, replicate 2: 1.39e5
- Call: inactive

Syx8 #1
- firefly reporter light, replicate 1: 2.38e5
- firefly reporter light, replicate 2: 1.91e5
- Renilla control light, replicate 1: 2.27e6
- Renilla control light, replicate 2: 2.09e6
- Call: inactive

Syx8 #2
- firefly reporter light, replicate 1: 3.65e5
- firefly reporter light, replicate 2: 7.52e5
- Renilla control light, replicate 1: 9.38e5
- Renilla control light, replicate 2: 1.67e6
- Call: inactive

Syx8 #3
- firefly reporter light, replicate 1: 3.86e5
- firefly reporter light, replicate 2: 3.78e5
- Renilla control light, replicate 1: 5.72e5
- Renilla control light, replicate 2: 1.08e6
- Call: inactive

CG31128
- firefly reporter light, replicate 1: 97823
- firefly reporter light, replicate 2: 1.27e5
- Renilla control light, replicate 1: 1.04e5
- Renilla control light, replicate 2: 91693
- Call: inactive

Grl40a
- firefly reporter light, replicate 1: 8.64e5
- firefly reporter light, replicate 2: 7.86e5
- Renilla control light, replicate 1: 1.96e6
- Renilla control light, replicate 2: 2.06e6
- Call: inactive

CG31898
- firefly reporter light, replicate 1: 2.32e5
- firefly reporter light, replicate 2: 1.82e5
- Renilla control light, replicate 1: 4.08e5
- Renilla control light, replicate 2: 4.31e5
- Call: inactive

Task6
- firefly reporter light, replicate 1: 1.97e5
- firefly reporter light, replicate 2: 2.19e5
- Renilla control light, replicate 1: 1.92e6
- Renilla control light, replicate 2: 2.34e6
- Call: inactive

CG6283 #1
- firefly reporter light, replicate 1: 1.51e5
- firefly reporter light, replicate 2: 2.74e5
- Renilla control light, replicate 1: 1.92e6
- Renilla control light, replicate 2: 2.53e6
- Call: inactive

CG6283 #2
- firefly reporter light, replicate 1: 6.26e5
- firefly reporter light, replicate 2: 7.77e5
- Renilla control light, replicate 1: 1.22e6
- Renilla control light, replicate 2: 1.26e6
- Call: inactive

CG11927
- firefly reporter light, replicate 1: 7.93e5
- firefly reporter light, replicate 2: 1.07e6
- Renilla control light, replicate 1: 1.49e6
- Renilla control light, replicate 2: 1.68e6
- Call: inactive

Fkbp12
- firefly reporter light, replicate 1: 1.52e5
- firefly reporter light, replicate 2: 1.73e5
- Renilla control light, replicate 1: 1.46e6
- Renilla control light, replicate 2: 1.66e6
- Call: inactive

Dora #1
- firefly reporter light, replicate 1: 61138
- firefly reporter light, replicate 2: 35528
- Renilla control light, replicate 1: 3.67e5
- Renilla control light, replicate 2: 1.71e5
- Call: inactive

Dora #2
- firefly reporter light, replicate 1: 4.02e5
- firefly reporter light, replicate 2: 1.56e5
- Renilla control light, replicate 1: 1.57e6
- Renilla control light, replicate 2: 6.14e5
- Call: inactive

Dora #3
- firefly reporter light, replicate 1: 1.57e5
- firefly reporter light, replicate 2: 1.02e5
- Renilla control light, replicate 1: 7.84e5
- Renilla control light, replicate 2: 3.27e5
- Call: inactive

Dora #4
- firefly reporter light, replicate 1: 2.40e5
- firefly reporter light, replicate 2: 1.59e5
- Renilla control light, replicate 1: 5.63e5
- Renilla control light, replicate 2: 2.71e5
- Call: inactive

Dora #5
- firefly reporter light, replicate 1: 4.85e5
- firefly reporter light, replicate 2: 3.28e5
- Renilla control light, replicate 1: 9.76e5
- Renilla control light, replicate 2: 7.25e5
- Call: inactive

Dora #6
- firefly reporter light, replicate 1: 2.24e5
- firefly reporter light, replicate 2: 4.76e5
- Renilla control light, replicate 1: 4.92e5
- Renilla control light, replicate 2: 1.21e6
- Call: inactive

Already shown: 3 of the entries above.
Surf4
- firefly reporter light, replicate 1: 1.37e5
- firefly reporter light, replicate 2: 1.63e5
- Renilla control light, replicate 1: 1.69e6
- Renilla control light, replicate 2: 2.21e6
- Call: inactive

CG13954 #1
- firefly reporter light, replicate 1: 2.65e5
- firefly reporter light, replicate 2: 1.56e5
- Renilla control light, replicate 1: 1.55e6
- Renilla control light, replicate 2: 9.18e5
- Call: inactive

CG13954 #2
- firefly reporter light, replicate 1: 3.46e5
- firefly reporter light, replicate 2: 2.97e5
- Renilla control light, replicate 1: 4.45e5
- Renilla control light, replicate 2: 3.73e5
- Call: inactive
